This is an account of results in article PMC8113555.

The target of experiment [1] is TEBP-1::3xFLAG (Telomere-Binding Protein-1, R06A4.2) (C. elegans) (UniProt O62329). Kind of experiment: co-IP; reciprocal IP of TEBP-1::3xFLAG (anti-FLAG M2, Protein G beads) from C. elegans extracts, western blot for GFP.
For experiment [2], the target named is T1, POT-1 full length, Gal4 fusion (C. elegans) (UniProt P42001).
T1 sequence: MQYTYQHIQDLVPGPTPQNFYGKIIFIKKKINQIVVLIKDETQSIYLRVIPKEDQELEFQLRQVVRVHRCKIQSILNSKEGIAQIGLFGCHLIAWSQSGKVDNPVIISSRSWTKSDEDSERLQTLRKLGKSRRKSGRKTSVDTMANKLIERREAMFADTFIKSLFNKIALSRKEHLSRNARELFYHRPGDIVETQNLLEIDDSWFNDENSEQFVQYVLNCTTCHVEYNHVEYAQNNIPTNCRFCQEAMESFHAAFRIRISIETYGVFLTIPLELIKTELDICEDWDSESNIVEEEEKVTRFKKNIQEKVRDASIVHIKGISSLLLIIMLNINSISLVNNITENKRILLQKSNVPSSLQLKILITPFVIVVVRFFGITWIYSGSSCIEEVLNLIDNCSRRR
As to the kind of experiment: two-hybrid; yeast strain PJ69-4α, Gal4 activation and DNA-binding domain plasmid pairs co-transformed; growth on SC Trp-Leu-His- and SC Trp-Leu-His-Ade- plates.

Experiment [3] deals with TEBP-2::GFP (Telomere-Binding Protein-2, T12E12.3) (C. elegans) (UniProt Q22429). Kind of experiment: co-IP; GFP-trap IP of TEBP-2::GFP from embryo and young adult extracts of strains with one or both endogenous tags, western blot for FLAG; also in pot-1 mutants (Supplementary Fig. 6h).

These are yes or no findings as the source states them, for the method shown. A result given as binding can be weak or reduced; the word gives no strength. For part of these data: Sequences can lack the tags named with a protein. For part of these data: Binding seen in cells or lysates may run through a third protein.

For the substance “TEBP-2::GFP (Telomere-Binding Protein-2, T12E12.3) (from UniProt Q22429)”, the binding result in experiment [1] was “binds”.
For “TEBP-2 full length, Gal4 fusion (C. elegans)”, the binding result in experiment [2] was “binds”.
Turning to “TEBP-1::3xFLAG (Telomere-Binding Protein-1, R06A4.2) (from UniProt O62329)”, the binding result in experiment [3] is “binds”.
